Experimental data as given in PubChem BioAssay AID743255 (National Center for Advancing Translational Sciences (NCATS), 2014).
In all, about 390,000 compounds went through this assay and about 910 (0.23%) were called active. Inconclusive means that the source gave no clear call. Such entries were picked first, then a sample of the others. Calls follow the shape of the dose curve; as a rule, active = well fitted inhibition curve with a large enough effect; inconclusive = small, poorly fitted or top-dose-only effect; inactive = no such curve, though single readings can be large or run the other way. Potencies beside an inconclusive call are fits to weak or partial responses and may not hold up.

The chains behind the UniProt entries cited, without tags or fusion partners. Where a name states a change or a piece, a line headed by the entry shows the natural chain unless it says otherwise.
UniProt O94782: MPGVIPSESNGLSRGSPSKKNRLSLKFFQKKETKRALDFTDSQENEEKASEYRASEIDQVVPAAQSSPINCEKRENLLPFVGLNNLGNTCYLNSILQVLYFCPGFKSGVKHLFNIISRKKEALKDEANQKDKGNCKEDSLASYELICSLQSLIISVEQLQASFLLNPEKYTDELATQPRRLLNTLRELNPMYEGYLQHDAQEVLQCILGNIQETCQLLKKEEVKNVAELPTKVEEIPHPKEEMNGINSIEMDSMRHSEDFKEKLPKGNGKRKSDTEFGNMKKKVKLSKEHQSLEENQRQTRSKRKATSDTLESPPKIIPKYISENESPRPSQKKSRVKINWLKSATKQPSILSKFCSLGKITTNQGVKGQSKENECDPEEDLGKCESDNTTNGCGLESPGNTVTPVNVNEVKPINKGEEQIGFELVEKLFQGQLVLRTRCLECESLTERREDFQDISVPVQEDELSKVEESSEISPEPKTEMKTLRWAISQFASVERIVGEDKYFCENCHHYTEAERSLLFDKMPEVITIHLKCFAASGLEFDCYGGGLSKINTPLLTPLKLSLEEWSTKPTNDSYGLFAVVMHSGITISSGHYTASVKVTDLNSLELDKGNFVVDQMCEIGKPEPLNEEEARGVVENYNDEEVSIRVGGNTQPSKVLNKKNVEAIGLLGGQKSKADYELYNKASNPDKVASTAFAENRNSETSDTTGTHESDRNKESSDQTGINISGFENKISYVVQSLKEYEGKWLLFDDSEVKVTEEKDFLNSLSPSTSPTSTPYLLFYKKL

The compounds below were run against Ubiquitin carboxyl-terminal hydrolase 1 (Homo sapiens) (UniProt O94782) (assay: Inhibitors of USP1/UAF1: Primary Screen). Conditions: recombinant USP1/UAF1, Ub-Rhodamine cleavage fluorescence; activity change, negative = inhibition: at 57.1 µM (top of the series).
Procedure, shortened: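 In this screen, compounds sit with the deubiquitinase complex (1nM) for 15 min at room temperature before Ub-Rho is added at 150nM final. Fluorescence rise is then followed for 6 reads every 60 seconds.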
% is scaled to controls: 0 for no effect and ±100 for the full control effect; potency is read from the fitted curve at half-maximal effect.
Also: nearly all actives have a fitted effect of over 60% in size.

Potency, inconclusive:
OCCN1CCN(c2ncnc3nc[nH]c23)CC1 1.12 µM [inhibitor, full curve, poor fit]
CC1CCN(c2ccc(/C=N\Nc3nncn3N)cc2[N+](=O)[O-])CC1 50.1 µM [inhibitor, partial curve, poor fit]
O=C(CN1CCN(c2ccc(F)cc2)CC1)Nc1nccs1 12.6 µM [inhibitor, partial curve, poor fit]
CC(C)NC(=O)/C(C#N)=C/c1ccc(N(C)C)o1 31.6 µM [inhibitor, partial curve]
NS(=O)(=O)c1cccc(NC(=O)CN2CCN(S(=O)(=O)c3ccc4c(c3)OCCO4)CC2)c1 10 µM [inhibitor, partial curve, poor fit]
COc1ccc(CCNC(=O)CN(CCc2ccccc2)S(C)(=O)=O)cc1 44.7 µM [inhibitor, partial curve, poor fit]
CCN(CC)S(=O)(=O)c1ccc2oc(C(=O)N(C)Cc3ccccc3)c(C)c2c1 39.8 µM [inhibitor, single point]
O=c1c(=Nc2ccccc2O)c(=O)c2ccccc12 35.5 µM [inhibitor, partial curve, poor fit]
Cc1cccc(NC(=O)C(=O)NCC(c2ccc3c(c2)OCO3)N2CCN(C)CC2)c1C (stereo unspecified) 28.2 µM [inhibitor, single point]
COc1ccc(CNC(=O)c2cc3c(=O)oc4ccc(C)cc4c3s2)c(OC)c1 2.51 µM [inhibitor, full curve]
COc1ccc(/C=N/Nc2nc3ccccc3[nH]2)c(OC)c1OC 0.398 µM [inhibitor, full curve, poor fit]
Cc1cc(Nc2ccc(F)cc2)c2ccccc2n1 0.251 µM [inhibitor, full curve, poor fit]
CCN1CCSc2ccc(C(=O)NCc3ccc(OC)cc3)cc21 7.08 µM [inhibitor, full curve, poor fit]
CCc1ccc(NC(=O)CSC2=Nc3ccccc3C3=NC(CC(=O)NCc4ccccc4)C(=O)N23)cc1 (stereo unspecified) 0.1 µM [inhibitor, full curve]
O=C(Cn1ncc2c3ccccc3n(Cc3cccc(Cl)c3)c2c1=O)NC1CCCCCC1 31.6 µM [inhibitor, partial curve]
C[C@@H]1CCCCO[C@H](CN(C)Cc2ccc(C(=O)O)cc2)[C@H](C)CN([C@@H](C)CO)C(=O)c2cc(NC(=O)Nc3ccc(C(F)(F)F)cc3)ccc2O1 0.708 µM [inhibitor, full curve, poor fit]
COc1cccc(CNC(=O)CCCn2nc(C)c3c(C)n(-c4ccccc4)nc3c2=O)c1 50.1 µM [inhibitor, partial curve, poor fit]
COc1cc(C)c(C)cc1S(=O)(=O)Nc1cccc(-c2ccc(N3CCOCC3)nn2)c1 0.794 µM [inhibitor, full curve, poor fit]
O=S(=O)(Nc1cccc(-c2ccc(N3CCCCCC3)nn2)c1)c1cccc(F)c1 31.6 µM [inhibitor, partial curve]
COc1ccc(NC(=O)COc2ccc(/C=N/O)cc2OC)cc1 28.2 µM [inhibitor, partial curve]
COc1cccc(N2CCN(c3ccc4nnc(CCC(=O)Nc5cccc(C(C)=O)c5)n4n3)CC2)c1 50.1 µM [inhibitor, partial curve, poor fit]
O=C(Cn1cc(SCc2c(F)cccc2Cl)c2ccccc21)N1CCCCCC1 0.316 µM [inhibitor, full curve]
COc1ccc(CCNC(=O)c2cnc3ccccc3n2)cc1 15.8 µM [inhibitor, partial curve]
CCOC(=O)c1scc(-c2ccccc2)c1S(=O)(=O)Nc1cc(OC)cc(OC)c1 44.7 µM [inhibitor, partial curve]
COC(=O)c1ccccc1NC(=S)N(C)C 5.01 µM [inhibitor, partial curve, poor fit]
CC1=NN(c2cccc(Cl)c2)C(=O)C1 0.251 µM [inhibitor, full curve, poor fit]
CCc1cc(=O)oc2c3c(c(Cl)cc12)OCN(Cc1cccc(OC)c1)C3 7.94 µM [inhibitor, partial curve, poor fit]
CCN(C(=O)c1cc2c(s1)-c1c(C)cccc1OC2)c1ccccc1F 7.94 µM [inhibitor, full curve, poor fit]
Cc1cc2ccccc2n1CCNC(=O)c1cccc(Br)c1 44.7 µM [inhibitor, partial curve, poor fit]
COc1ccc(Cc2nnc(-c3cccc(C)c3)o2)cc1OC 35.5 µM [inhibitor, single point]

Potency, active:
COc1cc(C)c2c(c1C=O)Oc1c(c(C)c(O)c3c1C(O)OC3=O)OC2=O (stereo unspecified) 15.8 µM

Activity change, negative = inhibition, inactive:
CN1CCC2CC1c1cc(-c3ccc(C(F)(F)F)cc3)ccc12 (stereo unspecified) -22.1%
CCCN(CCC)C(=O)Cn1c(=O)c2ccccc2n2c(=S)sc(-c3ccccc3C)c12 -10.4%
Cc1ccc(S(=O)(=O)NC(=O)NCCCN2CCOCC2)cc1 -12.8%
CCN(CC)c1nc(N)c2c(N)n(-c3ccccc3C)c(=S)c(C#N)c2c1C#N -21.8%
O=C(c1ccc2nc(Cc3ccccc3F)oc2c1)N1CC[C@H](O)C1 -21%
O=S(=O)(c1ccc(Br)cc1Cl)N1CCN(CCO)CC1 -21.1%
CN(C)CCNC(=O)c1coc(=O)c(Br)c1 -5.39%
Cc1ccc(Sc2ccc(/C=C3/C(=O)NN(c4ccccc4)C3=O)o2)cc1 -15.8%
CCC(Sc1nncn2c1cc1oc(C)cc12)C(=O)Nc1ccc(F)cc1 (stereo unspecified) -16.4%
NC(=O)c1c(NC(=O)C2CCCO2)sc2c1CCCC2 (stereo unspecified) -20.7%

Some of these compounds in order of number of heavy atoms, high to low.
Activity change, negative = inhibition, inactive:
CCCN(CCC)C(=O)Cn1c(=O)c2ccccc2n2c(=S)sc(-c3ccccc3C)c12 -10.4%
Cc1ccc(Sc2ccc(/C=C3/C(=O)NN(c4ccccc4)C3=O)o2)cc1 -15.8%
O=C(c1ccc2nc(Cc3ccccc3F)oc2c1)N1CC[C@H](O)C1 -21%
CN1CCC2CC1c1cc(-c3ccc(C(F)(F)F)cc3)ccc12 (stereo unspecified) -22.1%
O=S(=O)(c1ccc(Br)cc1Cl)N1CCN(CCO)CC1 -21.1%

A draw from above in order of formula weight, smallest number first:
Activity change, negative = inhibition, inactive:
NC(=O)c1c(NC(=O)C2CCCO2)sc2c1CCCC2 (stereo unspecified) -20.7%
O=C(c1ccc2nc(Cc3ccccc3F)oc2c1)N1CC[C@H](O)C1 -21%
CCC(Sc1nncn2c1cc1oc(C)cc12)C(=O)Nc1ccc(F)cc1 (stereo unspecified) -16.4%
